Here are results for 16 compounds from PubChem BioAssay AID2685 (National Center for Advancing Translational Sciences (NCATS), 2010).

This is one part of the list. Further columns of the screen follow, without active or inactive calls. The list favours compounds with an active or inconclusive main result. The note in brackets gives the kind of curve behind each potency; many fits are weak.

This test can be described thus: qHTS Assay for Lipid Storage Modulators in Drosophila S3 Cells.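 For cell number change: cells counted by Cell Tracker Red CMTPX staining in the red channel.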 As to conditions: BODIPY lipid droplet fluorescence, 18-24 h; for cell number change: measured here: cell count max response, cells fed with added oleic acid. A digest of the protocol: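 Drosophila S3 cells got compounds at several concentrations plus oleic acid (400 uM solution). Laser-scanning cytometry with 488 nm excitation read lipid droplets at 500-530 nm and cells at 575-640 nm. Percent activity was relative to 20 uM Triacsin C.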

Where [1] appears, read: measured here: cell number channel AC50, cells fed with added oleic acid.
Where [2] appears, read: measured here: lipid fluorescence (Fed channel) AC50, cells fed with added oleic acid.

In the case of `C=CCSc1ncc(CO)n1Cc1ccccc1`, the cell number change is -39.1%. Moreover, under setting [1], the AC50 is 231 nM [falling, partial curve]. For the same compound, under setting [2], the AC50 was 366 nM [falling, partial curve].
Take `CC(C)[C@H](NC(=O)OCc1ccccc1)C(=O)OCc1ccccc1`: the cell number change stood at 1.74%.
Regarding `Cc1noc(NS(=O)(=O)c2ccc(NC(=O)CCC3CCCC3)cc2)c1C`, the AC50 under setting [2] was 92 nM [falling, full curve, poor fit].
The same measure, in the same setting: next, `COc1ccc(C(=O)O)cc1S(=O)(=O)Nc1cccc(C(F)(F)F)c1`: 23100 nM [falling, partial curve].
As for `CCn1c2ccccc2c2cc(C3C(C#N)=C(N)OC4=C3C(=O)CC(C)(C)C4)ccc21` (stereo not drawn), the cell number change came out at 10.1%. For the same compound, under setting [2], the AC50 was 3660 nM [rising, single point].
`O=C(CCC(=O)N1CCN(S(=O)(=O)c2ccc(Cl)cc2)CC1)Nc1cccc(Br)c1`: the cell number change was 7.38%.
For the compound `CN(C)CCCN=C(NO)c1ccc(Cl)cc1Cl`, the cell number change was -42.3%. Besides, under setting [1], the AC50 was 82 nM [falling, full curve]. Further, the AC50 under setting [2] was 461 nM [falling, full curve].
Take `Cc1nn(-c2cccc(C(=O)O)c2)c(C)c1Oc1ccccc1O`: the cell number change turned out to be 3.19%. For the same compound, the AC50 under setting [2] was 4110 nM [falling, single point].
For the compound `CCN1C(=O)/C(=C\C=C2/C=CC=CN2CC)SC1=S`, the cell number change is -2.31%. In addition, the AC50 under setting [2] was 1030 nM [rising, full curve, poor fit].
For the compound `COCCOC(=O)c1c(C)oc2ccc(NS(=O)(=O)c3cccs3)cc12`, the cell number change is 17.5%. Under setting [2], the AC50 is 58 nM [rising, full curve].
On to `CC(=O)c1c(NCc2ccccc2)nc(=O)n(-c2ccccc2)c1C`, for which the cell number change was found to be 6.14%. Moreover, the AC50 under setting [2] is 2910 nM [rising, full curve].
Take `CN(Cc1ccccc1Br)C(=O)CN1C(=O)NC2(CCCCCC2)C1=O`: the cell number change is -30.1%. The AC50 under setting [1] was 29100 nM [falling, single point]. Besides, under setting [2], the AC50 was 4110 nM [falling, single point].
On to `Nc1nc2c(ncn2C2C[C@H](O)[C@@H](CO)O2)c(=O)[nH]1` (stereo partly drawn), for which the cell number change is -44%. Under setting [1], the AC50 is 11600 nM [falling, partial curve]. The AC50 under setting [2] is 18400 nM [falling, partial curve, poor fit].
For `Cc1ccc(N(Cc2cc3ccc(C)cc3[nH]c2=O)C(=O)c2cccs2)cc1`, the cell number change was 18.6%. The AC50 under setting [1] is 461 nM [rising, full curve, poor fit]. In addition, under setting [2], the concentration at half-maximal activity (AC50) is 326 nM [rising, full curve, poor fit].
For `Cn1cccc1/C=C1\CCC/C(=C\c2cccn2C)C1=O`, the cell number change was -157%. Moreover, the AC50 under setting [1] is 6510 nM [rising, single point].
Take `CCCc1nn(C)c(C(=O)Nc2ccc(Cl)cc2)c1Cl`: the cell number change amounted to 7.98%. Also, under setting [2], the AC50 is 6510 nM [rising, partial curve, poor fit].
